Test results published in patent publication US10023554B2, “Halogen-substituted heterocyclic compound salt” (UBE INDUSTRIES, LTD., priority 2014, dated 2018).
Some entries share one result that the patent states for a list of compounds.

Tested on: LPA-induced histamine release
Test: LPA-induced histamine release test in mice
Format: in vivo
Details: male CD1 mice, oral, dose of 10 mg/kg, LPA i.v. 4 hours after the administration

COc1cc(-c2sc(Cl)cc2NC(=O)O[C@H](C)c2ccccc2)ccc1-c1ccc(C2(C(=O)O)CC2)cc1 [Example 1, Sodium (R)-1-[4′-(5-chloro-3-{[(1-phenylethoxy)carbonyl]amino}thiophen-2-yl)-2′-methoxy-[1,1′-biphenyl]-4-yl]cyclopropanecarboxylate]
efficacy rate (%): rate of individuals which showed the inhibition rate of 80% or more (plasma histamine): ≥ 50%
